Measurements taken from PubChem BioAssay AID1487 (National Center for Advancing Translational Sciences (NCATS), 2009).
The list shows a part of the results. Shown are side measurements of this screen, not its main read-out; they come without a call. Most of these compounds were active or inconclusive in the main read-out, so they are no random draw. Potencies come from curve fits of mixed quality, noted in brackets.

Assay: qHTS Assay for Modulators of Lamin A Splicing
Conditions: HeLa LMNA splicing GFP/RFP minigene ratio, 48 h
How it was run: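 S3 HeLa stable clones carrying a lamin A-EGFP splicing minigene plus DsRed2 were seeded at 600 cells/well in Opti-MEM with 2% FBS, pin-dosed and incubated 48 h at 37°C. Acumen cytometry (488 nm) gave the GFP/RFP total-intensity ratio.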

[1] = measured here: GFP splicing reporter channel
[2] = measured here: RFP viability control channel

Compound	AC50 [1]	AC50 [2]
CCOc1ccc(S(=O)(=O)N2CCN(C(=O)c3cccn3C)CC2)cc1	35.5 µM [rising, single point]	22.4 µM [rising, single point]
CCCOc1ccc(C(=O)Nc2ccc(Cl)cn2)cc1		11.2 µM [rising, single point]
C=CCSSSCC=C	20 µM [falling, single point]	
O=[N+]([O-])c1ccc2[nH]c3c(c2c1)CCCC3O (stereo not given)	0.00316 µM [rising, full curve, poor fit]	
CCOc1ccc(NC(=S)N(CCc2c(C)[nH]c3ccccc23)Cc2ccco2)cc1		2 µM [rising, full curve]
c1ccc2c(c1)ccc1nnc(-c3ccc4c(c3)OCO4)n12		12.6 µM [rising, single point]
O=C(Nc1cccc(Cl)c1)c1cc(S(=O)(=O)NCCc2ccc(Cl)cc2)ccc1F	35.5 µM [falling, single point]	25.1 µM [falling, single point]
COc1ccc(C2C3C(=O)N(Cc4ccccc4)C(=O)C3ON2c2ccccc2)c(OC)c1OC (stereo not given)	31.6 µM [rising, single point]	35.5 µM [rising, single point]
Fc1ccc(C(c2nnnn2CCc2ccccc2)N2CCCc3ccccc32)cc1 (stereo not given)	15.8 µM [rising, partial curve, poor fit]	12.6 µM [rising, partial curve]
CN/C(=C\[N+](=O)[O-])NCCSCc1ccc(CN(C)C)o1		0.0794 µM [falling, full curve, poor fit]
CCOC(=O)c1cc(C(=O)n2cc(Cl)cn2)nn1C		3.55 µM [rising, single point]
COC(=O)c1cn(N(C)c2ncc(C(F)(F)F)cc2Cl)c(=O)c2ccccc12		31.6 µM [rising, single point]
COc1ccccc1N1CCN(C(=O)c2sc3nc4n(c(=O)c3c2C)CCC4)CC1	14.1 µM [rising, single point]	25.1 µM [rising, single point]
O=C(NCCSc1ccccn1)c1ccc(Cl)cc1Cl		0.00447 µM [falling, full curve, poor fit]
CC(C)Oc1ccc(C(=O)NC2(C(F)(F)F)NC(=O)N(CCCc3ccccc3)C2=O)cc1 (stereo not given)	35.5 µM [rising, single point]	35.5 µM [rising, single point]
CCCCC(=O)NC(=S)NNC(=O)c1ccc(Cl)cc1Cl	5.62 µM [rising, single point]	3.55 µM [rising, single point]
Cc1ccc(S(=O)(=O)N(C)Cc2ccc(C(=O)NN=C(CC(C)C)CC(C)C)cc2)cc1		31.6 µM [rising, single point]
CN(C)/C=C(/C(=O)c1ccccc1)S(=O)(=O)c1ccc(Cl)cc1	10 µM [rising, partial curve]	
Cc1nn(Cc2cccc(C(=O)NC34CC5CC(CC(C5)C3)C4)c2)c(C)c1Br		11.2 µM [rising, partial curve]
Cc1ccc(-c2cn3c(n2)CCCC3)cc1	0.0126 µM [rising, full curve, poor fit]	35.5 µM [rising, single point]

Compound	AC50 [1]	AC50 [2]
O=C(NC1CC(=O)N(c2cccc(F)c2)C1)c1ccc(S(=O)(=O)N2CCOCC2)cc1 (stereo not given)		1 µM [falling, full curve]
CN(C)c1oc(-c2ccc(OCc3ccccc3)cc2)nc1C#N		35.5 µM [rising, single point]
Cc1cnc(NC(=O)c2cncc(Br)c2)s1		0.0282 µM [falling, full curve, poor fit]
COc1cc(-c2cc(C(=O)N3CCN(c4ccccn4)CC3)c3ccccc3n2)cc(OC)c1OC		14.1 µM [rising, single point]
O=C(Nc1ccc(N2CCOCC2)c(Cl)c1)c1cc2ccccc2o1		17.8 µM [rising, single point]
c1ccc(N2CCN(c3ncnc4sc5c(c34)CCC5)CC2)cc1	14.1 µM [rising, partial curve, poor fit]	
COc1ccccc1NC(=O)CSC1=NCCN1	14.1 µM [rising, single point]	35.5 µM [rising, single point]
CC(=O)NS(=O)(=O)c1ccc(NC(=O)/C=C/c2ccccc2Cl)cc1		0.0794 µM [falling, full curve, poor fit]
Clc1ccc(OCc2nc(-c3ccncc3)no2)c(Cl)c1		15.8 µM [falling, single point]
O=C(CSc1nnc(-c2ccc(F)cc2)c2ccccc12)Nc1c(F)cccc1F	20 µM [rising, single point]	22.4 µM [rising, single point]
CC(NC(=O)c1ccc(Br)o1)c1ccccc1 (stereo not given)	0.0631 µM [rising, full curve, poor fit]	
COc1ccccc1-c1nnc(SC2CCc3ccccc3NC2=O)s1 (stereo not given)		12.6 µM [rising, partial curve]
Cc1nc2ccc(NC(=O)c3ccc(S(=O)(=O)N4CCOCC4)cc3)cc2s1		8.91 µM [rising, partial curve]
S=C(c1ccc(-c2ccccc2Cl)o1)N1CCCCC1		25.1 µM [rising, single point]
Cc1cc(Nc2ccccc2)n(-c2cccc(Cl)c2)n1		31.6 µM [rising, single point]
Cc1ccc(S(=O)(=O)Nc2ccc(S(=O)(=O)Nc3cc(C)nc(C)n3)cc2)cc1	0.01 µM [falling, full curve, poor fit]	0.0178 µM [falling, full curve, poor fit]
O=[N+]([O-])c1ncn(Cc2c(Cl)cccc2Cl)n1		20 µM [rising, partial curve, poor fit]
O=C(Nc1nc(-c2ccc(S(=O)(=O)N3CCCC3)cc2)cs1)c1ccco1		25.1 µM [rising, partial curve, poor fit]
c1ccc(C2=Nc3c(ccc4ccccc34)C(c3ccncc3)=NN2)cc1		7.94 µM [falling, partial curve, poor fit]
Cc1ccc(N(CC(C)C)S(=O)(=O)c2nnc(NC(=O)c3ccco3)s2)cc1	0.2 µM [rising, full curve, poor fit]	

Fetched by compound from the list above:
Compound	AC50 [1]	AC50 [2]
CC(NC(=O)c1ccc(Br)o1)c1ccccc1 (stereo not given)	0.0631 µM [rising, full curve, poor fit]	
COc1ccccc1-c1nnc(SC2CCc3ccccc3NC2=O)s1 (stereo not given)		12.6 µM [rising, partial curve]
COc1cc(-c2cc(C(=O)N3CCN(c4ccccn4)CC3)c3ccccc3n2)cc(OC)c1OC		14.1 µM [rising, single point]
O=C(Nc1nc(-c2ccc(S(=O)(=O)N3CCCC3)cc2)cs1)c1ccco1		25.1 µM [rising, partial curve, poor fit]

The list continues:

Compound	AC50 [1]	AC50 [2]
Cc1c(C=O)c(C=O)c(C)n1Cc1ccccc1		2.51 µM [rising, full curve, poor fit]
Cc1ccc2[nH]c3c(c2c1)CN(C(=O)CN1CCN(c2cccc(C)c2C)CC1)CC3	25.1 µM [falling, single point]	14.1 µM [falling, single point]
Cc1cc(C(=O)CCl)c(C)n1-c1cccc(S(=O)(=O)N2CCOCC2)c1		35.5 µM [falling, single point]
Cc1ccc(CCNC(=O)C2CCC(CNc3c(N4CCC(C)CC4)c(=O)c3=O)CC2)cc1 (stereo not given)	11.2 µM [rising, single point]	
Cc1onc(-c2ccccc2Cl)c1C(=O)Nc1nnc(-c2ccc(Br)cc2)s1		14.1 µM [rising, partial curve]
CSc1cccc(-c2nnc(NC(=O)c3ccc4c(c3)OCCO4)o2)c1		12.6 µM [rising, partial curve]
COc1ccc(OC)c2sc(NC(=O)CCSc3ccccc3)nc12		20 µM [rising, single point]
CCN(C(=O)CSc1nnc(Cn2nnc3ccccc32)o1)c1nc(C)cs1		11.2 µM [rising, partial curve, poor fit]
COc1ccc(-c2ccc(NS(=O)(=O)c3cccc(Cl)c3)cc2)nn1	31.6 µM [falling, partial curve, poor fit]	
CCc1ccc2c(c1)C(=O)c1ccccc1C2=O	35.5 µM [rising, single point]	25.1 µM [rising, single point]
Cc1[nH]n(-c2ccc(Cl)cc2)c(=O)c1C=NC12CN3CN(CN(C3)C1)C2		0.0562 µM [rising, full curve, poor fit]
Cn1cc(/C=N/Nc2ccccc2)c2ccccc21		17.8 µM [rising, single point]
CCCN1CCCC[C@H]1C(=O)Nc1c(C)cccc1C	3.98 µM [falling, partial curve, poor fit]	2.51 µM [falling, partial curve, poor fit]
Cc1ccc(-n2ncc3c(N(CCO)Cc4ccccc4)ncnc32)cc1	12.6 µM [rising, single point]	
COc1cc(C(=O)NCc2ccc(OCCN(C)C)cc2)cc(OC)c1OC	0.0708 µM [falling, full curve]	0.0562 µM [falling, full curve]
Cc1ccc(NC(=O)C2(N3CCC3=O)CCCCC2)cc1	0.0316 µM [rising, full curve, poor fit]	
Cc1ccc(C(CC(=O)O)Nc2nc(N3CCOCC3)nc(N3CCOCC3)n2)cc1 (stereo not given)		10 µM [rising, single point]
Cc1ccc(CSCCNC(=O)c2ccccc2)cc1	25.1 µM [rising, single point]	35.5 µM [rising, single point]
O=C(Cc1csc2nc(-c3ccccc3)cn12)NCc1ccc(F)cc1	3.98 µM [falling, full curve, poor fit]	
